# Values from PubChem BioAssay AID1259254 (NCATS, 2017)
# Purpose: 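Finding genes that stop cells copying their DNA twice in one cycle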 (primary screen)
# Cells: human HCT116 colorectal cancer cells
# Reagent: single siRNA against human genes
# Duration: 3 days
# Measured: 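Nuclei stained with Hoechst and imaged; cell-cycle phase assigned by DNA content; G2 share scaled per plate, non-targeting siRNA 0%, GMNN siRNA 100%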
# Reading the numbers: G2 robust z-score and G2 cells, % of GMNN control: higher = more G2 cells, more excess DNA replication; raw share of cells in G2: higher = larger share of cells with G2 DNA content
# Rule for the call: 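Active siRNAs have a G2 robust z of 5 or more median absolute deviations over the median, which in these data means about 38% or higher of GMNN control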
# This is an unselected part of about 59,000 reagents. About 1,550 of them (2.6%) count as active. 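G2 share is only a proxy for re-replication; each gene was hit by three separate siRNAs, and active genes were retested.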 Raw values vary from plate to plate and are shown uncorrected. Unmarked entries are inactive. The numbers tell different reagents against one gene apart. Reagent sequences are not shown. Not given: the amount of reagent.
The first 3 records, ahead of the listing:
gene,reagent,G2 robust z-score,"G2 cells, % of GMNN control",raw share of cells in G2 (%)
PARN (poly(A)-specific ribonuclease),1,1.79,15.5,11.1
PARN (poly(A)-specific ribonuclease),2,0.0666,3.44,4.37
PARN (poly(A)-specific ribonuclease),3,-0.658,-1.66,4.58

Main list, from the start:
gene,reagent,G2 robust z-score,"G2 cells, % of GMNN control",raw share of cells in G2 (%)
PARN (poly(A)-specific ribonuclease),1,1.79,15.5,11.1
PARN (poly(A)-specific ribonuclease),2,0.0666,3.44,4.37
PARN (poly(A)-specific ribonuclease),3,-0.658,-1.66,4.58
LIMS2 (LIM zinc finger domain containing 2),1,1.25,11.8,8.65
LIMS2 (LIM zinc finger domain containing 2),2,-0.33,0.648,6.71
LIMS2 (LIM zinc finger domain containing 2),3,-0.601,-1.26,3.81
ZNF165 (zinc finger protein 165),1,-1.08,-4.63,3.64
ZNF165 (zinc finger protein 165),2,-1.19,-5.42,2.69
ZNF165 (zinc finger protein 165),3,0.59,7.12,6.91
CCDC196 (coiled-coil domain containing 196),1,2.03,17.2,10.3
CCDC196 (coiled-coil domain containing 196),2,0.598,7.17,6.14
CCDC196 (coiled-coil domain containing 196),3,1.58,14.1,7.9
UNC5C (unc-5 netrin receptor C),1,1,10,8.29
UNC5C (unc-5 netrin receptor C),2,3.77,29.5,15.6
UNC5C (unc-5 netrin receptor C),3,2.41,19.9,13.6
TPD52 (tumor protein D52),1,-0.31,0.785,5.48
TPD52 (tumor protein D52),2,0.225,4.55,5.7
TPD52 (tumor protein D52),3,2.24,18.7,9.97
PTGS2 (prostaglandin-endoperoxide synthase 2),1,1.1,10.7,7.71
PTGS2 (prostaglandin-endoperoxide synthase 2),2,4.13,32.1,16
PTGS2 (prostaglandin-endoperoxide synthase 2),3,1.74,15.2,10.5
ITGB8 (integrin subunit beta 8),1,1.92,16.4,10.2
ITGB8 (integrin subunit beta 8),2,0.392,5.72,7.12
ITGB8 (integrin subunit beta 8),3,3.36,26.6,15.8
SEPTIN3 (septin 3),1,0.886,9.2,7.74
SEPTIN3 (septin 3),2,2.56,21,13.1
SEPTIN3 (septin 3),3,3.64,28.6,19
TNFSF4 (TNF superfamily member 4),1,0.469,6.27,7.91
TNFSF4 (TNF superfamily member 4),2,0.924,9.47,7.65
TNFSF4 (TNF superfamily member 4),3,5.3 (active),40.3,17.6
